This data set in a line: general procedure: Fmoc solid-phase peptide synthesis; Rink Amide AM resin; HBTU. The conditions noted are these: whole synthesis, scale 0.05 mmol.

The substance “Cl—CH2CO-Lys-cyclo[Cys(CH2)-Arg-Gly-Asp-Cys]-Phe-Cys-NH2” had a crude mass of 27 mg.

Values taken from patent publication US7811551B2 (GE Healthcare AS, priority 2003, dated 2010).
